{"source": "the supplement of paper PMC8728848", "binders": {"B1": {"name": "MCL (Mus musculus), Q9Z2H6 (protein)", "chain": "MWLEESQMKSKGTRHPQLIPCVFAVVSISFLSACFISTCLVTHHYFLRWTRGSVVKLSDYHTRVTCIREEPQPGATGGTWTCCPVSWRAFQSNCYFPLNDNQTWHESERNCSGMSSHLVTINTEAEQNFVTQLLDKRFSYFLGLADENVEGQWQWVDKTPFNPHTVFWEKGESNDFMEEDCVVLVHVHEKWVWNDFPCHFEVRRICKLPGITFNWKPSK"}}, "test_in_all_cases": "glycan array binding signal (z-score within array); higher = stronger binding", "conditions_in_all_cases": "glycan notation: IUPAC condensed, linker removed", "key": {"[1]": {"target": "Fuc(a1-3)[GalNAc(b1-4)]GlcNAc", "how_it_was_run": "(§1)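 The Consortium for Functional Glycomics database supplied 3228 glycan arrays, of which those lacking an available protein sequence were dropped. The binding signal, a within-array Z-score, was averaged across arrays of the same protein sequence and across linkers. Negative scores can be read as non-binding.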"}, "Fuc(a1-4)GlcNAc": {"target": "Fuc(a1-4)GlcNAc", "how_it_was_run": "as §1"}, "Fuc(b1-3)GlcNAc": {"target": "Fuc(b1-3)GlcNAc", "how_it_was_run": "as §1"}, "Gal(a1-2)Gal": {"target": "Gal(a1-2)Gal", "how_it_was_run": "as §1"}, "Gal(a1-3)Gal": {"target": "Gal(a1-3)Gal", "how_it_was_run": "as §1"}, "Gal(a1-3)Gal(b1-3)GlcNAc": {"target": "Gal(a1-3)Gal(b1-3)GlcNAc", "how_it_was_run": "as §1"}, "Gal(a1-3)Gal(b1-4)Glc": {"target": "Gal(a1-3)Gal(b1-4)Glc", "how_it_was_run": "as §1"}, "Gal(a1-3)Gal(b1-4)GlcNAc": {"target": "Gal(a1-3)Gal(b1-4)GlcNAc", "how_it_was_run": "as §1"}, "[2]": {"target": "Gal(a1-3)Gal(b1-4)[Fuc(a1-3)]GlcNAc", "how_it_was_run": "as §1"}, "Gal(a1-3)GalNAc": {"target": "Gal(a1-3)GalNAc", "how_it_was_run": "as §1"}, "[3]": {"target": "Gal(a1-3)[Gal(a1-4)]Gal(b1-4)GlcNAc", "how_it_was_run": "as §1"}, "Gal(a1-4)Gal(b1-4)Glc": {"target": "Gal(a1-4)Gal(b1-4)Glc", "how_it_was_run": "as §1"}, "Gal(a1-4)Gal(b1-4)GlcNAc": {"target": "Gal(a1-4)Gal(b1-4)GlcNAc", "how_it_was_run": "as §1"}, "Gal(a1-4)GlcNAc": {"target": "Gal(a1-4)GlcNAc", "how_it_was_run": "as §1"}, "Gal(a1-6)Glc": {"target": "Gal(a1-6)Glc", "how_it_was_run": "as §1"}, "Gal(b1-2)Gal": {"target": "Gal(b1-2)Gal", "how_it_was_run": "as §1"}, "Gal(b1-3)Gal": {"target": "Gal(b1-3)Gal", "how_it_was_run": "as §1"}, "Gal(b1-3)Gal(b1-4)GlcNAc": {"target": "Gal(b1-3)Gal(b1-4)GlcNAc", "how_it_was_run": "as §1"}, "Gal(b1-3)GalNAc": {"target": "Gal(b1-3)GalNAc", "how_it_was_run": "as §1"}, "[4]": {"target": "Gal(b1-3)GalNAc(b1-3)Gal(a1-4)Gal(b1-4)Glc", "how_it_was_run": "as §1"}, "[5]": {"target": "Gal(b1-3)GalNAc(b1-4)Gal(b1-4)Glc", "how_it_was_run": "as §1"}, "[6]": {"target": "Gal(b1-3)GalNAc(b1-4)[Neu5Ac(a2-3)]Gal(b1-4)Glc", "how_it_was_run": "as §1"}, "Gal(b1-3)GlcNAc": {"target": "Gal(b1-3)GlcNAc", "how_it_was_run": "as §1"}, "[7]": {"target": "Gal(b1-3)GlcNAc(b1-2)Man(a1-3)[Gal(b1-3)GlcNAc(b1-2)Man(a1-6)]Man(b1-4)GlcNAc(b1-4)GlcNAc", "how_it_was_run": "as §1"}, "[8]": {"target": "Gal(b1-3)GlcNAc(b1-3)Gal(b1-3)GlcNAc", "how_it_was_run": "as §1"}, "[9]": {"target": "Gal(b1-3)GlcNAc(b1-3)Gal(b1-4)Glc", "how_it_was_run": "as §1"}, "[10]": {"target": "Gal(b1-3)GlcNAc(b1-3)Gal(b1-4)GlcNAc", "how_it_was_run": "as §1"}, "[11]": {"target": "Gal(b1-3)[Fuc(a1-4)]GlcNAc", "how_it_was_run": "as §1"}, "[12]": {"target": "Gal(b1-3)[Fuc(a1-4)]GlcNAc(b1-3)Gal(b1-3)[Fuc(a1-4)]GlcNAc", "how_it_was_run": "as §1"}, "[13]": {"target": "Gal(b1-3)[Fuc(a1-4)]GlcNAc(b1-3)Gal(b1-4)GlcNAc", "how_it_was_run": "as §1"}, "[14]": {"target": "Gal(b1-3)[Fuc(a1-4)]GlcNAc(b1-3)Gal(b1-4)[Fuc(a1-3)]GlcNAc", "how_it_was_run": "as §1"}, "[15]": {"target": "Gal(b1-3)[GlcNAc(b1-6)]GalNAc", "how_it_was_run": "as §1"}, "[16]": {"target": "Gal(b1-3)[Neu5Ac(a2-6)]GalNAc", "how_it_was_run": "as §1"}, "[17]": {"target": "Gal(b1-3)[Neu5Ac(a2-6)]GlcNAc(b1-6)Gal(b1-4)Glc", "how_it_was_run": "as §1"}, "[18]": {"target": "Gal(b1-3)[Neu5Ac(b2-6)]GalNAc", "how_it_was_run": "as §1"}, "[19]": {"target": "Gal(b1-4)GalNAc(a1-3)[Fuc(a1-2)]Gal(b1-4)GlcNAc", "how_it_was_run": "as §1"}, "[20]": {"target": "Gal(b1-4)GalNAc(b1-3)[Fuc(a1-2)]Gal(b1-4)GlcNAc", "how_it_was_run": "as §1"}, "Gal(b1-4)Glc": {"target": "Gal(b1-4)Glc", "how_it_was_run": "as §1"}, "Gal(b1-4)Glc6S": {"target": "Gal(b1-4)Glc6S", "how_it_was_run": "as §1"}, "Gal(b1-4)GlcNAc": {"target": "Gal(b1-4)GlcNAc", "how_it_was_run": "as §1"}, "[21]": {"target": "Gal(b1-4)GlcNAc(a1-6)Gal(b1-4)GlcNAc", "how_it_was_run": "as §1"}, "[22]": {"target": "Gal(b1-4)GlcNAc(b1-2)Man(a1-3)[Gal(b1-4)GlcNAc(b1-2)Man(a1-6)]Man(b1-4)GlcNAc(b1-4)GlcNAc", "how_it_was_run": "as §1"}, "[23]": {"target": "Gal(b1-4)GlcNAc(b1-3)Gal(b1-3)GlcNAc", "how_it_was_run": "as §1"}, "[24]": {"target": "Gal(b1-4)GlcNAc(b1-3)Gal(b1-4)Glc", "how_it_was_run": "as §1"}, "[25]": {"target": "Gal(b1-4)GlcNAc(b1-3)Gal(b1-4)GlcNAc", "how_it_was_run": "as §1"}}, "note": "The list shows a part of the results."}
{"binder": "B1", "values": [{"measurement": "glycan array binding signal (z-score)", "setting": "[1]", "value": -0.351}, {"measurement": "glycan array binding signal (z-score)", "setting": "Fuc(a1-4)GlcNAc", "value": -0.113}, {"measurement": "glycan array binding signal (z-score)", "setting": "Fuc(b1-3)GlcNAc", "value": -0.475}, {"measurement": "glycan array binding signal (z-score)", "setting": "Gal(a1-2)Gal", "value": 0.462}, {"measurement": "glycan array binding signal (z-score)", "setting": "Gal(a1-3)Gal", "value": -0.18}, {"measurement": "glycan array binding signal (z-score)", "setting": "Gal(a1-3)Gal(b1-3)GlcNAc", "value": 2.63}, {"measurement": "glycan array binding signal (z-score)", "setting": "Gal(a1-3)Gal(b1-4)Glc", "value": 1.88}, {"measurement": "glycan array binding signal (z-score)", "setting": "Gal(a1-3)Gal(b1-4)GlcNAc", "value": 3.06}, {"measurement": "glycan array binding signal (z-score)", "setting": "[2]", "value": -0.415}, {"measurement": "glycan array binding signal (z-score)", "setting": "Gal(a1-3)GalNAc", "value": 0.01}, {"measurement": "glycan array binding signal (z-score)", "setting": "[3]", "value": 0.605}, {"measurement": "glycan array binding signal (z-score)", "setting": "Gal(a1-4)Gal(b1-4)Glc", "value": -0.218}, {"measurement": "glycan array binding signal (z-score)", "setting": "Gal(a1-4)Gal(b1-4)GlcNAc", "value": -0.316}, {"measurement": "glycan array binding signal (z-score)", "setting": "Gal(a1-4)GlcNAc", "value": 0.384}, {"measurement": "glycan array binding signal (z-score)", "setting": "Gal(a1-6)Glc", "value": 0.889}, {"measurement": "glycan array binding signal (z-score)", "setting": "Gal(b1-2)Gal", "value": -0.362}, {"measurement": "glycan array binding signal (z-score)", "setting": "Gal(b1-3)Gal", "value": -0.472}, {"measurement": "glycan array binding signal (z-score)", "setting": "Gal(b1-3)Gal(b1-4)GlcNAc", "value": 0.642}, {"measurement": "glycan array binding signal (z-score)", "setting": "Gal(b1-3)GalNAc", "value": 0.573}, {"measurement": "glycan array binding signal (z-score)", "setting": "[4]", "value": -0.509}, {"measurement": "glycan array binding signal (z-score)", "setting": "[5]", "value": -0.375}, {"measurement": "glycan array binding signal (z-score)", "setting": "[6]", "value": 0.748}, {"measurement": "glycan array binding signal (z-score)", "setting": "Gal(b1-3)GlcNAc", "value": 0.168}, {"measurement": "glycan array binding signal (z-score)", "setting": "[7]", "value": -0.92}, {"measurement": "glycan array binding signal (z-score)", "setting": "[8]", "value": -0.691}, {"measurement": "glycan array binding signal (z-score)", "setting": "[9]", "value": -0.164}, {"measurement": "glycan array binding signal (z-score)", "setting": "[10]", "value": -0.814}, {"measurement": "glycan array binding signal (z-score)", "setting": "[11]", "value": 0.741}, {"measurement": "glycan array binding signal (z-score)", "setting": "[12]", "value": 0.16}, {"measurement": "glycan array binding signal (z-score)", "setting": "[13]", "value": 0.707}, {"measurement": "glycan array binding signal (z-score)", "setting": "[14]", "value": -0.107}, {"measurement": "glycan array binding signal (z-score)", "setting": "[15]", "value": 0.199}, {"measurement": "glycan array binding signal (z-score)", "setting": "[16]", "value": -0.888}, {"measurement": "glycan array binding signal (z-score)", "setting": "[17]", "value": -0.69}, {"measurement": "glycan array binding signal (z-score)", "setting": "[18]", "value": -0.021}, {"measurement": "glycan array binding signal (z-score)", "setting": "[19]", "value": -0.269}, {"measurement": "glycan array binding signal (z-score)", "setting": "[20]", "value": -0.655}, {"measurement": "glycan array binding signal (z-score)", "setting": "Gal(b1-4)Glc", "value": -0.038}, {"measurement": "glycan array binding signal (z-score)", "setting": "Gal(b1-4)Glc6S", "value": -0.033}, {"measurement": "glycan array binding signal (z-score)", "setting": "Gal(b1-4)GlcNAc", "value": -0.235}, {"measurement": "glycan array binding signal (z-score)", "setting": "[21]", "value": -0.798}, {"measurement": "glycan array binding signal (z-score)", "setting": "[22]", "value": -0.706}, {"measurement": "glycan array binding signal (z-score)", "setting": "[23]", "value": -0.161}, {"measurement": "glycan array binding signal (z-score)", "setting": "[24]", "value": 0.482}, {"measurement": "glycan array binding signal (z-score)", "setting": "[25]", "value": 1.47}]}
